# Laboratory results as given in patent publication EP0491793B1, “2'-DEOXY-4'-THIORIBONUCLEOSIDES AS ANTIVIRAL AND ANTICANCER AGENTS” (Southern Research Institute, priority 1989, dated 1991).
# For at least one compound, name, drawing or mass did not settle the structure.
# Test system: HSV-1 (E377)
# Assay: CPE-inhibition assay against HSV-1 in Vero cell monolayers
# Type: cell-based, herpes simplex virus, Type 1
# Conditions: statement in words on the tests of Table 1
# Procedure: 2'-Deoxy-4'-thioribonucleosides were tested for antiviral activity against viruses that replicate in mammalian cells growing in cell culture. The Virus Rating (VR) is a standard weighted measurement of antiviral activity which takes into account the degree of inhibition of virus-induced cytopathogenic effects (CPE) and the degree of cytotoxicity produced by the test compound, determined by a modification of the method of Ehrlich et al, Ann. N.Y. Acad. Sci. 130, 5-16 (1965) .
# The CPE-inhibition assays were designed to test seven 0.5 log10 concentrations of each compound, beginning with 320 µg/mL, against HSV in triplicate 24-hour Vero cell monolayers in 96-well tissue culture plates. To each of the replicate cell cultures were dispensed 0.1 mL of the test compound solution (or suspension) and 0.1 mL of HSV suspension (diluted in medium to yield 32 CCID50 units per 0.1 mL). Cell controls, untreated virus-infected controls and drug cytotoxicity controls were included in each assay. […] The cell monolayers were examined microscopically for drug cytotoxicity and for CPE. which was graded on a scale of 0-4 (0-100% CPE).
# The VR was calculated as 0.1 of the sum of the numerical differences between the recorded CPE grade of each test well and that of the corresponding virus control in the culture plate. […]
compound,measurement,value
Cc1cn([C@H]2C[C@H](O)[C@@H](CO)S2)c(=O)[nH]c1=O [1-(2'-Deoxy-4'-thio-β-D-ribofuranosyl)thymine],antiviral activity against herpes simplex Type 1,definite antiviral activity
